# Data reported in the supplement of paper PMC8728848.
# Some of the results follow.
# B1: HHL-2 (Homo sapiens), P07307 (protein)
# chain: MAKDFQDIQQLSSEENDHPFHQGEGPGTRRLNPRRGNPFLKGPPPAQPLAQRLCSMVCFSLLALSFNILLLVVICVTGSQSEGHRGAQLQAELRSLKEAFSNFSSSTLTEVQAISTHGGSVGDKITSLGAKLEKQQQDLKADHDALLFHLKHFPVDLRFVACQMELLHSNGSQRTCCPVNWVEHQGSCYWFSHSGKAWAEAEKYCQLENAHLVVINSWEEQKFIVQHTNPFNTWIGLTDSDGSWKWVDGTDYRHNYKNWAVTQPDNWHGHELGGSEDCVEVQPDGRWNDDFCLQVYRWVCEKRRNATGEVA
# Columns and labels:
# Assay in all cases: glycan array binding signal (z-score within array); higher = stronger binding
# Details in all cases: glycan notation: IUPAC condensed, linker removed
# [1] = molecular target: Fuc(a1-2)[Gal(a1-3)]Gal(b1-4)GlcNAc(b1-2)Man(a1-3)[Fuc(a1-2)[Gal(a1-3)]Gal(b1-4)GlcNAc(b1-2)Man(a1-6)]Man(b1-4)GlcNAc(b1-4)GlcNAc
# Method in brief: (§1)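 Arrays were curated from the Consortium for Functional Glycomics database, 3228 in total, and kept only where the protein sequence was available. Binding is expressed as a within-array Z-score. This score was averaged across arrays of the same protein sequence at different concentrations or buffers and across linkers, and negative values can be read as non-binding.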
# [2] = molecular target: Fuc(a1-2)[Gal(a1-3)]Gal(b1-4)[Fuc(a1-3)]GlcNAc
# Method in brief: as §1
# [3] = molecular target: Fuc(a1-2)[Gal(a1-4)]Gal(b1-4)GlcNAc
# Method in brief: as §1
# [4] = molecular target: Fuc(a1-2)[GalNAc(a1-3)]Gal
# Method in brief: as §1
# [5] = molecular target: Fuc(a1-2)[GalNAc(a1-3)]Gal(b1-3)GlcNAc
# Method in brief: as §1
# [6] = molecular target: Fuc(a1-2)[GalNAc(a1-3)]Gal(b1-3)GlcNAc(b1-2)Man(a1-3)[Fuc(a1-2)[GalNAc(a1-3)]Gal(b1-3)GlcNAc(b1-2)Man(a1-6)]Man(b1-4)GlcNAc(b1-4)GlcNAc
# Method in brief: as §1
# [7] = molecular target: Fuc(a1-2)[GalNAc(a1-3)]Gal(b1-4)Glc
# Method in brief: as §1
# [8] = molecular target: Fuc(a1-2)[GalNAc(a1-3)]Gal(b1-4)GlcNAc
# Method in brief: as §1
# [9] = molecular target: Fuc(a1-2)[GalNAc(a1-3)]Gal(b1-4)GlcNAc(b1-2)Man(a1-3)[GalNAc(a1-3)[Fuc(a1-2)]Gal(b1-4)GlcNAc(b1-2)Man(a1-6)]Man(b1-4)GlcNAc(b1-4)GlcNAc
# Method in brief: as §1
# [10] = molecular target: Fuc(a1-2)[GalNAc(a1-3)]Gal(b1-4)GlcNAc(b1-3)Gal(b1-4)GlcNAc
# Method in brief: as §1
# [11] = molecular target: Fuc(a1-2)[GalNAc(a1-3)]Gal(b1-4)GlcNAc(b1-3)Gal(b1-4)GlcNAc(b1-3)Gal(b1-4)GlcNAc
# Method in brief: as §1
# [12] = molecular target: Fuc(a1-2)[GalNAc(a1-3)]Gal(b1-4)[Fuc(a1-3)]GlcNAc
# Method in brief: as §1
# [13] = molecular target: Fuc(a1-2)[GalNAc(a1-4)]Gal(b1-4)GlcNAc
# Method in brief: as §1
# [14] = molecular target: Fuc(a1-2)[GalNAc(b1-3)]Gal
# Method in brief: as §1
# Fuc(a1-3)GlcNAc = molecular target: Fuc(a1-3)GlcNAc
# Method in brief: as §1
# [15] = molecular target: Fuc(a1-3)[Gal(b1-4)]Glc6S
# Method in brief: as §1
# [16] = molecular target: Fuc(a1-3)[Gal(b1-4)]GlcNAc
# Method in brief: as §1
# [17] = molecular target: Fuc(a1-3)[Gal(b1-4)]GlcNAc(b1-2)Man(a1-3)[Fuc(a1-3)[Gal(b1-4)]GlcNAc(b1-2)Man(a1-6)]Man(b1-4)GlcNAc(b1-4)GlcNAc
# Method in brief: as §1
# [18] = molecular target: Fuc(a1-3)[Gal(b1-4)]GlcNAc(b1-2)Man(a1-6)[Gal(b1-4)GlcNAc(b1-2)Man(a1-3)]Man(b1-4)GlcNAc(b1-4)GlcNAc
# Method in brief: as §1
# [19] = molecular target: Fuc(a1-3)[Gal(b1-4)]GlcNAc(b1-3)Gal(b1-3)[Fuc(a1-4)]GlcNAc
# Method in brief: as §1
# [20] = molecular target: Fuc(a1-3)[Gal(b1-4)]GlcNAc(b1-4)Gal(b1-4)[Fuc(a1-3)]GlcNAc
# Method in brief: as §1
# [21] = molecular target: Fuc(a1-3)[Gal(b1-4)]GlcNAc(b1-4)Gal(b1-4)[Fuc(a1-3)]GlcNAc(b1-4)Gal(b1-4)[Fuc(a1-3)]GlcNAc
# Method in brief: as §1
# [22] = molecular target: Fuc(a1-3)[Gal(b1-4)]GlcNAc6S
# Method in brief: as §1
# [23] = molecular target: Fuc(a1-3)[Gal3S(b1-4)]Glc6S
# Method in brief: as §1
# [24] = molecular target: Fuc(a1-3)[Gal3S(b1-4)]GlcNAc
# Method in brief: as §1
# [25] = molecular target: Fuc(a1-3)[Gal3S(b1-4)]GlcNAc6S
# Method in brief: as §1
# [26] = molecular target: Fuc(a1-3)[GalNAc(b1-4)]GlcNAc
# Method in brief: as §1
# [27] = molecular target: Fuc(a1-3)[Neu5Ac(a2-3)]Gal(b1-4)GlcNAc(b1-3)GalNAc
# Method in brief: as §1
# Fuc(a1-4)GlcNAc = molecular target: Fuc(a1-4)GlcNAc
# Method in brief: as §1
# Fuc(b1-3)GlcNAc = molecular target: Fuc(b1-3)GlcNAc
# Method in brief: as §1
# Gal(a1-2)Gal = molecular target: Gal(a1-2)Gal
# Method in brief: as §1
# Gal(a1-3)Gal = molecular target: Gal(a1-3)Gal
# Method in brief: as §1
# Gal(a1-3)Gal(b1-3)GlcNAc = molecular target: Gal(a1-3)Gal(b1-3)GlcNAc
# Method in brief: as §1
# Gal(a1-3)Gal(b1-4)Glc = molecular target: Gal(a1-3)Gal(b1-4)Glc
# Method in brief: as §1
# Gal(a1-3)Gal(b1-4)GlcNAc = molecular target: Gal(a1-3)Gal(b1-4)GlcNAc
# Method in brief: as §1
# [28] = molecular target: Gal(a1-3)Gal(b1-4)[Fuc(a1-3)]GlcNAc
# Method in brief: as §1
# [29] = molecular target: Gal(a1-3)Gal(b1-4)[Fuc(a1-3)]GlcNAc(b1-2)Man(a1-3)[Gal(a1-3)Gal(b1-4)[Fuc(a1-3)]GlcNAc(b1-2)Man(a1-6)]Man(b1-4)GlcNAc(b1-4)GlcNAc
# Method in brief: as §1
binder,measurement,setting,value
B1,glycan array binding signal (z-score),[1],-0.605
same,glycan array binding signal (z-score),[2],-0.086
same,glycan array binding signal (z-score),[3],-0.728
same,glycan array binding signal (z-score),[4],-0.571
same,glycan array binding signal (z-score),[5],-0.07
same,glycan array binding signal (z-score),[6],-0.339
same,glycan array binding signal (z-score),[7],-0.657
same,glycan array binding signal (z-score),[8],-0.68
same,glycan array binding signal (z-score),[9],-0.298
same,glycan array binding signal (z-score),[10],-0.24
same,glycan array binding signal (z-score),[11],0.423
same,glycan array binding signal (z-score),[12],-0.236
same,glycan array binding signal (z-score),[13],0.84
same,glycan array binding signal (z-score),[14],0.113
same,glycan array binding signal (z-score),Fuc(a1-3)GlcNAc,-0.026
same,glycan array binding signal (z-score),[15],-0.062
same,glycan array binding signal (z-score),[16],-0.276
same,glycan array binding signal (z-score),[17],0.278
same,glycan array binding signal (z-score),[18],-0.987
same,glycan array binding signal (z-score),[19],-0.559
same,glycan array binding signal (z-score),[20],-0.334
same,glycan array binding signal (z-score),[21],0.267
same,glycan array binding signal (z-score),[22],-0.074
same,glycan array binding signal (z-score),[23],-0.68
same,glycan array binding signal (z-score),[24],0.06
same,glycan array binding signal (z-score),[25],0.079
same,glycan array binding signal (z-score),[26],-0.451
same,glycan array binding signal (z-score),[27],6.72
same,glycan array binding signal (z-score),Fuc(a1-4)GlcNAc,0.449
same,glycan array binding signal (z-score),Fuc(b1-3)GlcNAc,-0.563
same,glycan array binding signal (z-score),Gal(a1-2)Gal,-0.135
same,glycan array binding signal (z-score),Gal(a1-3)Gal,-0.286
same,glycan array binding signal (z-score),Gal(a1-3)Gal(b1-3)GlcNAc,-0.915
same,glycan array binding signal (z-score),Gal(a1-3)Gal(b1-4)Glc,-0.398
same,glycan array binding signal (z-score),Gal(a1-3)Gal(b1-4)GlcNAc,-0.356
same,glycan array binding signal (z-score),[28],-0.784
same,glycan array binding signal (z-score),[29],-0.354

# Part of the list above, tab-delimited:
binder	measurement	setting	value
B1	glycan array binding signal (z-score)	Fuc(b1-3)GlcNAc	-0.563
same	glycan array binding signal (z-score)	Gal(a1-2)Gal	-0.135
